Reference: article PMC8162360 (Chemical Science, 2020)

Test: general procedure: Fmoc solid-phase peptide synthesis; 2-chlorotrityl chloride resin; Oxyma Pure/DIC
Details: for step yield: late stage modification step

Substance: Biseokeaniamide A
- step yield: 67%

Substance: biseokeaniamide C
- difficulty met (coupling step): led to complete loss of stereochemical integrity at the Val α-position
- step yield: 69%

Substance: Biseokeaniamide B
- step yield: 53%
